In the supplement of paper PMC11732987, “Enantioselective OTUD7B fragment discovery through chemoproteomics screening and high-throughput optimisation” (Communications Chemistry, 2025):
This is one part of the list. The data scatter; read single values as rough.

Amino acid sequences for entries named in this document (tags omitted). A change or cut given only in a name is not applied to a line headed by its entry. Residues count along the entry.
UniProt Q8IZD2, 1012-1037: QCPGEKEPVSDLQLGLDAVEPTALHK
UniProt Q07866, 415-437: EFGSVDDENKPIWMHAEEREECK
UniProt Q99538: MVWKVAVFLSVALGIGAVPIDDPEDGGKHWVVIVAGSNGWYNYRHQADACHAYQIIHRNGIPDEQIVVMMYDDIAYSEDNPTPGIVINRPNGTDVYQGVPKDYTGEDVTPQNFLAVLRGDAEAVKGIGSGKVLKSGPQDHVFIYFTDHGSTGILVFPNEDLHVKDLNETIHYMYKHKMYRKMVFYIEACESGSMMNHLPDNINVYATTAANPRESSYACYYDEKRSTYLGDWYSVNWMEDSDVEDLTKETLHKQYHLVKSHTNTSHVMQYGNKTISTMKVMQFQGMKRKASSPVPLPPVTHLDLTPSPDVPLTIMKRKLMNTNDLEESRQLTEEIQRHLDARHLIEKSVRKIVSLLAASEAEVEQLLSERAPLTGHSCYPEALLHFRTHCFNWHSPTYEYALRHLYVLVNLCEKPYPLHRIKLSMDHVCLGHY
UniProt Q5SW96: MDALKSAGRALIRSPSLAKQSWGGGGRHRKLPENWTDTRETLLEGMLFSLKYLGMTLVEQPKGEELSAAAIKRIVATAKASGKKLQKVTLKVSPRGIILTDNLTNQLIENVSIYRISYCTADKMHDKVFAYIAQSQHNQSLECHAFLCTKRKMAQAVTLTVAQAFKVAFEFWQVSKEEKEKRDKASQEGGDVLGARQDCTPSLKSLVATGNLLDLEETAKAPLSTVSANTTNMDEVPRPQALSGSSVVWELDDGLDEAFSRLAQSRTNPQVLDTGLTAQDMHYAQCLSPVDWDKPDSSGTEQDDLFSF
UniProt Q15031, 202-228: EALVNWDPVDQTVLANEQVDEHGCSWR
UniProt Q9Y4W2: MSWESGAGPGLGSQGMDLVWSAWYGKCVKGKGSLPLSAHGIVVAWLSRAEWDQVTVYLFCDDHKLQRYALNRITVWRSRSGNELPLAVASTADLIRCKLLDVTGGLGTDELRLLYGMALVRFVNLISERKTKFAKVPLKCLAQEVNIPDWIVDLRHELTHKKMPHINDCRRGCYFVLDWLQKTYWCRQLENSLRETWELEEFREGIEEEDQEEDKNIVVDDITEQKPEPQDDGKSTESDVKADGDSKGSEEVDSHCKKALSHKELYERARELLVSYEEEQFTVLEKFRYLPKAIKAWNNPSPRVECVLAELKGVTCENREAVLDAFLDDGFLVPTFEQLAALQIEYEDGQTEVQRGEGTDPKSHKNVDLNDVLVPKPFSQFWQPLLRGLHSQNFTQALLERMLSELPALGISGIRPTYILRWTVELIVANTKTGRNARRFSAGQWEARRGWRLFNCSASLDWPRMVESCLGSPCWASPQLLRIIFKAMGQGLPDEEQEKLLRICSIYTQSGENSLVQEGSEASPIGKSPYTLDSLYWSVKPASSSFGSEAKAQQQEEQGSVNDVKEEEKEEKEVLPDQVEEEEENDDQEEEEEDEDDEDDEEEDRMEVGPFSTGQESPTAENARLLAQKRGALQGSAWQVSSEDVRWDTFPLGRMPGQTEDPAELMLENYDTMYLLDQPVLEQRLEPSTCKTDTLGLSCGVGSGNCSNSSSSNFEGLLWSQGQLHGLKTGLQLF
UniProt Q3ZCW2: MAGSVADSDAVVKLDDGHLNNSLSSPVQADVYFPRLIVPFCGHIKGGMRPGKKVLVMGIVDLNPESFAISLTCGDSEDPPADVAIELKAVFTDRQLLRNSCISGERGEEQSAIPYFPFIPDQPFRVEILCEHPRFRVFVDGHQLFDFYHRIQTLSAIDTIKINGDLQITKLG
UniProt Q8NF37, 427-446: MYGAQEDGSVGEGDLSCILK
UniProt Q03164: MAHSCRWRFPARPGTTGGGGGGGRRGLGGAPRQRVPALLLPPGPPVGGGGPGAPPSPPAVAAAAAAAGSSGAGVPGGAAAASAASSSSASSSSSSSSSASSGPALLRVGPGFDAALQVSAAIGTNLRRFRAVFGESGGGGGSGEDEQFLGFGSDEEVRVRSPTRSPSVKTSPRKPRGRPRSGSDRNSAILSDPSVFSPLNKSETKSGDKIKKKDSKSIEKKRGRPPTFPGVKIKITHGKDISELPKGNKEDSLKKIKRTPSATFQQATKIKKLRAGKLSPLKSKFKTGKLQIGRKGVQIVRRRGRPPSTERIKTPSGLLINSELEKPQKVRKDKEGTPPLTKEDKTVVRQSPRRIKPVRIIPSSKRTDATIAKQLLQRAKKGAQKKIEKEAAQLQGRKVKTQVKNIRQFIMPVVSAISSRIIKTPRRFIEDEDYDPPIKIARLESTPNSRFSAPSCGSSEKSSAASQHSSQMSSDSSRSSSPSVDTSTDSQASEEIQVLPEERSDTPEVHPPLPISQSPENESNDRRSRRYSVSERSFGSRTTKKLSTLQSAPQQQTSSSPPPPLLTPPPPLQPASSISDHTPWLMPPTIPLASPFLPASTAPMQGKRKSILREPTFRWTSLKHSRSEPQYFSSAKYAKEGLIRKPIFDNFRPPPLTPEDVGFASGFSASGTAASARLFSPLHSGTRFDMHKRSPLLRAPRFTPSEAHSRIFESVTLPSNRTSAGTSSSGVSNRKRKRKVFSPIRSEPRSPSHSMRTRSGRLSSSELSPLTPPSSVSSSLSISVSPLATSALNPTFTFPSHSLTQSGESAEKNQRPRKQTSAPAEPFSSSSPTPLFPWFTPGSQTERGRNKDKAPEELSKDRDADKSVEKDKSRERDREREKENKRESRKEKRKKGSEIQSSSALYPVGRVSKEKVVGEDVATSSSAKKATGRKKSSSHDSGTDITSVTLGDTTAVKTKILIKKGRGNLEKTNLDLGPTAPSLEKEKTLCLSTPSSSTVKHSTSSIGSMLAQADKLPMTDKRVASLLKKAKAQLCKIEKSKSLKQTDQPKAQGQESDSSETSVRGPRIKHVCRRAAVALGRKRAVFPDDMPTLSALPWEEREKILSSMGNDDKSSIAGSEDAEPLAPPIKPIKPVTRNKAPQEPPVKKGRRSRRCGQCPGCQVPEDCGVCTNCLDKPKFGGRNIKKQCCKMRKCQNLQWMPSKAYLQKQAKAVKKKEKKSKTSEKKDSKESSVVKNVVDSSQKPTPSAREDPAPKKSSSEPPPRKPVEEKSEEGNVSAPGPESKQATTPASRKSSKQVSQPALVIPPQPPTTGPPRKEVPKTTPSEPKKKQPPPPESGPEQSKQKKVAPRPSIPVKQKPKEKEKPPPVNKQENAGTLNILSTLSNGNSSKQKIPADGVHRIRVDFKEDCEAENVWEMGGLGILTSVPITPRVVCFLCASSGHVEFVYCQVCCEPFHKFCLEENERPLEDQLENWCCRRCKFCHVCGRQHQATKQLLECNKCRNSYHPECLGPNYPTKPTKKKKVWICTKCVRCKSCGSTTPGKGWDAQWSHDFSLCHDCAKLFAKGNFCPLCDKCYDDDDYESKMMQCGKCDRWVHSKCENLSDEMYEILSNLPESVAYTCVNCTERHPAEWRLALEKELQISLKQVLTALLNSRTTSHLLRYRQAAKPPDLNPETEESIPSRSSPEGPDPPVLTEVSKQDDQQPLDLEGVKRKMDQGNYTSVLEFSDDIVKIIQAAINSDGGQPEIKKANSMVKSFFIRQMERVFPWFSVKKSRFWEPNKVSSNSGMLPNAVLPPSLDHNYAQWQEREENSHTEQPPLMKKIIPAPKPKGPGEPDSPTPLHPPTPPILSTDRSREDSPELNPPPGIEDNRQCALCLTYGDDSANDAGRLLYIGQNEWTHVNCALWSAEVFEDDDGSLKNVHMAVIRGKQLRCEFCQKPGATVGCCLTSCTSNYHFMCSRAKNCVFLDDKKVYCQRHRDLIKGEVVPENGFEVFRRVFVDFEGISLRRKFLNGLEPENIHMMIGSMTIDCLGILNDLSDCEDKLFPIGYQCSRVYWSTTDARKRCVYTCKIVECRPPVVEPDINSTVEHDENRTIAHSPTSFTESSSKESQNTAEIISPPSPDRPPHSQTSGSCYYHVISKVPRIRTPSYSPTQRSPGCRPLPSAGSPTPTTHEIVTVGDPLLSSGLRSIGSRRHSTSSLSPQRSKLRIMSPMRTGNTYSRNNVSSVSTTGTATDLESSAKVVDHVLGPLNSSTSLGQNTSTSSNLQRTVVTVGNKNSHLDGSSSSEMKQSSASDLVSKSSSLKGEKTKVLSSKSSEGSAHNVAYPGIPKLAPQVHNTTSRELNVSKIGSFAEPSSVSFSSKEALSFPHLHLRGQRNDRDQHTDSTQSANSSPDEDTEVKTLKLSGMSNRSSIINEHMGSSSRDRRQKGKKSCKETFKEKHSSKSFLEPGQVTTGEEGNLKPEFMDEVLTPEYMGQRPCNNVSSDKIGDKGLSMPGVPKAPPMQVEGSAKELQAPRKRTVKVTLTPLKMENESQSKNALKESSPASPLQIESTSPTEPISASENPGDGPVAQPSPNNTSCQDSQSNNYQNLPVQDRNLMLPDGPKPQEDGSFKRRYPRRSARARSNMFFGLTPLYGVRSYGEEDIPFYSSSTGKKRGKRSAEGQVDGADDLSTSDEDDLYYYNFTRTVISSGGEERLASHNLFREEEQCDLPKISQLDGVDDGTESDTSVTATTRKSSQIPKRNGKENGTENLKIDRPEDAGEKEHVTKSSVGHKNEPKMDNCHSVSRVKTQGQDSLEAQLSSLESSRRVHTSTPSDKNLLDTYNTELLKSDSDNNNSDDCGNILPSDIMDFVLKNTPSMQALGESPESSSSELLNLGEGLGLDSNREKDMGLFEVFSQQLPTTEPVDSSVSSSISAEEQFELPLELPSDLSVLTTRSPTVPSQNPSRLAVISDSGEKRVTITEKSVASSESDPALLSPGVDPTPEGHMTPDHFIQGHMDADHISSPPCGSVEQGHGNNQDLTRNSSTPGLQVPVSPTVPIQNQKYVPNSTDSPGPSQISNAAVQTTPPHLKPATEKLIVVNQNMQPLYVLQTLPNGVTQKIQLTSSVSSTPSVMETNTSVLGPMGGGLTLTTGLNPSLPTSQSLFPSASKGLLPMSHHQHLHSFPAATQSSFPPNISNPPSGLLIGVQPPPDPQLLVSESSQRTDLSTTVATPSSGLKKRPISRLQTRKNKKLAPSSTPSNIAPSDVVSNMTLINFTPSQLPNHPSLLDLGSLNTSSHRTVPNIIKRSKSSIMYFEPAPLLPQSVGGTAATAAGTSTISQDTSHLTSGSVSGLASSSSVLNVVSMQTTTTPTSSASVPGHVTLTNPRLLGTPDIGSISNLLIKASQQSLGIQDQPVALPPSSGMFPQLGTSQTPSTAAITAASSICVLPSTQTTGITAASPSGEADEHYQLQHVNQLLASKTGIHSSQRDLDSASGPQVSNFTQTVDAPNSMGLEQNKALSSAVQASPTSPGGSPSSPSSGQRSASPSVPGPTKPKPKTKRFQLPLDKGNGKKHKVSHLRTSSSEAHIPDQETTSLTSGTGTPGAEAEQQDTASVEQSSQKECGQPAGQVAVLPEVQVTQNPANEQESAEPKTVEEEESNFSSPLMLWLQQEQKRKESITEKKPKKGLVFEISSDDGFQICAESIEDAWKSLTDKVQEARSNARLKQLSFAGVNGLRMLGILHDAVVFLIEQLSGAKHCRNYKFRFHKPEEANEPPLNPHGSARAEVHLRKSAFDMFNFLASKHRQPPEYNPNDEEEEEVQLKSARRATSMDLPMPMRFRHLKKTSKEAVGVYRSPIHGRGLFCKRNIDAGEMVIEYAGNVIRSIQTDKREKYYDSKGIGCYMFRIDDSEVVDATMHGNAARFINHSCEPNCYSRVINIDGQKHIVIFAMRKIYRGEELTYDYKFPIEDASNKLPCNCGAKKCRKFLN
UniProt Q86WA8: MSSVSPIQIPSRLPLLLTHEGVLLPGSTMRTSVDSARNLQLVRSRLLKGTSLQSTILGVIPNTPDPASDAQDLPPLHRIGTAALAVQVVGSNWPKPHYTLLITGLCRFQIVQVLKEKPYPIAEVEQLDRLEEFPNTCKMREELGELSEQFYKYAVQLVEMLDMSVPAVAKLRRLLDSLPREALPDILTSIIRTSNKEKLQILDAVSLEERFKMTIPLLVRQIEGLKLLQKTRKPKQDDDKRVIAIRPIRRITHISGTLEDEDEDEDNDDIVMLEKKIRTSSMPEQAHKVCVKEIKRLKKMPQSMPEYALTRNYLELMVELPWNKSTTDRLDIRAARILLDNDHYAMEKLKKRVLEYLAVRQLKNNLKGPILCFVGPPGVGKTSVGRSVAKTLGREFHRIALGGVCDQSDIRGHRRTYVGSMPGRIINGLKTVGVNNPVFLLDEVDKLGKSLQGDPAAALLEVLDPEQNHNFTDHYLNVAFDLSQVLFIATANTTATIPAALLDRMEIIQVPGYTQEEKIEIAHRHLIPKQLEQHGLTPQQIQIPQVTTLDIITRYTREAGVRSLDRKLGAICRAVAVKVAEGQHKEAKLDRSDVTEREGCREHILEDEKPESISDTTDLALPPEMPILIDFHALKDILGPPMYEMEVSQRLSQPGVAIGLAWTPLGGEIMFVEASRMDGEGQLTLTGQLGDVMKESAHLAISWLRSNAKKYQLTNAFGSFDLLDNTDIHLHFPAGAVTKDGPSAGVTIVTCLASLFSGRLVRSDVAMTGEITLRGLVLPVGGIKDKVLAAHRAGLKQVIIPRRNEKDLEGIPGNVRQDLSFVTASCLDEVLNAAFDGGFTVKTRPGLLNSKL
UniProt Q9UPQ0, 2-29: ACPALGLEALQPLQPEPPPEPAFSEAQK

Tests used:
[1] = compound: ClCC(=O)N[C@@H]1CCCc2ccccc12; assay: log2 mean competition ratio of IA-DTB cysteine labelling (DMSO/compound) (log2 ratio); higher = stronger cysteine engagement by compound; details: treatment time: 4 h, cell line lysate: HEK293T
Method: (§1)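 IA-DTB competitive cysteine chemoproteomics in HEK293T RIPA lysate. Lysates were treated with compound 29 or 30 at 50 or 200 µM for 4 h, then IA-DTB (500 µM, 1 h), trypsin-digested, NeutrAvidin-enriched and analysed by diaPASEF. Competition ratio = intensity DMSO / intensity compound (n=4 treated, n=64 DMSO); binding: mean log2 CR ≥ 1 and p ≤ 0.05 plus QC filters. Target is the cysteine site.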

[2] = compound: ClCC(=O)N[C@H]1CCCc2ccccc12; assay: as above; details: treatment time: 4 h, cell line lysate: HEK293T
Method: as §1

Target	log2 mean competition ratio ([1]; 50 µM)	log2 mean competition ratio ([1]; 200 µM)	log2 mean competition ratio ([2]; 50 µM)	log2 mean competition ratio ([2]; 200 µM)
KMT2E C1013 (UniProt Q8IZD2)	-0.00711	-0.0503	-0.2	0.1
LDHA C163	0.38	0.178	0.153	0.239
KLC1 C236 (UniProt Q07866)	-0.107	-0.174	0.333	-0.139
KNL1 C849 (UniProt Q8NG31)	0.121	0.317	0.152	0.141
LGMN C219 (UniProt Q99538)	-0.0327	-0.215	0.0226	-0.18
KMT2D_(C1260,C1260,C1273,C1273) (UniProt O14686)	-0.219	0.265	-0.151	0.0814
KIN C212 (UniProt O60870)	-0.0417	-0.0797	0.00762	-0.212
LRP1 C2404 (UniProt Q07954)	-0.0617	0.204	-0.372	0.251
LRBA C832	-0.0105	-0.114	-0.0975	0.0186
LRCH4 C622 (UniProt O75427)	-0.252	0.357	-0.114	-0.118
LMO7 C228 (UniProt Q8WWI1)	-0.219	-0.0331	0.0983	0.258
LETMD1 C218 (UniProt Q6P1Q0)	-0.0936	-0.362	-0.0367	-0.0295
KIZ C543 (UniProt Q2M2Z5)	0.117	-0.0987	0.0414	0.0529
LRBA C2820	-0.0284	-0.18	0.0924	-0.213
KIF7 C179	-0.122	-0.369	0.682	-0.168
LRP1 C2837 (UniProt Q07954)	-0.121	0.376	0.129	0.371
LDLRAP1 C199 (UniProt Q5SW96)	-0.539	0.0801	-0.348	0.22
LIMK1 C349 (UniProt P53667)	-0.198	-0.245	0.0141	-0.253
LRPPRC C130	0.00381	-0.13	-0.314	-0.104
LARP4B C590 (UniProt Q92615)	0.0172	-0.0435	0.359	0.0498
LANCL2 C350 (UniProt Q9NS86)	-0.309	-0.318	0.201	-0.162
LPP C364 (UniProt Q93052)	0.0328	-0.0567	0.254	-0.194
LARS2 C225 (UniProt Q15031)	-0.183	0.0457	0.165	-0.027

Exported as comma-separated lines: entries from further up.
Target,log2 mean competition ratio ([1]; 50 µM),log2 mean competition ratio ([1]; 200 µM),log2 mean competition ratio ([2]; 50 µM),log2 mean competition ratio ([2]; 200 µM)
KLC1 C236 (UniProt Q07866),-0.107,-0.174,0.333,-0.139
LARS2 C225 (UniProt Q15031),-0.183,0.0457,0.165,-0.027

Additional records.

Target	log2 mean competition ratio ([1]; 50 µM)	log2 mean competition ratio ([1]; 200 µM)	log2 mean competition ratio ([2]; 50 µM)	log2 mean competition ratio ([2]; 200 µM)
LMO7 C261 (UniProt Q8WWI1)	-0.0909	-0.00955	-0.351	0.00924
KLHDC3 C102 (UniProt Q9BQ90)	-0.0247	0.0294	0.0703	-0.236
LAS1L C169 (UniProt Q9Y4W2)	-0.178	0.0523	0.366	0.103
LIN37 C176 (UniProt Q96GY3)	-0.0192	0.384	-0.624	0.321
LGALSL C101 (UniProt Q3ZCW2)	-0.324	0.196	-0.181	0.183
KLC2 C474 (UniProt Q9H0B6)	0.0305	0.0956	-0.136	0.0278
KNOP1 C184 (UniProt Q1ED39)	-0.251	0.126	0.0276	0.33
LLGL2 C280 (UniProt Q6P1M3)	0.0286	0.188	-0.421	0.0456
KNL1 C1301 (UniProt Q8NG31)	0.0613	0.0457	-0.162	0.0517
KIF7 C1283	0.33	-0.267	0.302	-0.236
KPNA6 C357 (UniProt O60684)	0.103	-0.254	0.443	-0.042
KIF5B C7 (UniProt P33176)	-0.236	-0.132	0.142	0.0753
LPCAT1 C443 (UniProt Q8NF37)	-0.218	-0.0881	-0.243	-0.124
L3MBTL2 C531 (UniProt Q969R5)	0.243	0.0615	-0.0487	-0.0124
KMT2A C990 (UniProt Q03164)	0.105	-0.0911	0.00153	-0.229
KLC1 C436 (UniProt Q07866)	0.0392	-0.139	0.205	-0.0616
LIN7A C62 (UniProt O14910)	0.0952	-0.127	0.0289	-0.137
KLHL9 C559 (UniProt Q9P2J3)	-0.109	-0.0204	-0.172	-0.0876
LONP2 C405 (UniProt Q86WA8)	0.182	0.294	0.0144	0.277
L2HGDH C272 (UniProt Q9H9P8)	-0.114	-0.0691	0.021	-0.0637
LRBA C2017	0.0132	0.31	-0.175	0.328
LIMCH1 C3 (UniProt Q9UPQ0)	0.195	-0.624	0.461	-0.424
